From publication PMC7904954
No constants are given. Whether binding was seen depends on the method and setting. Binding seen in cells or lysates may run through a third protein. Some results given as binding are weak or reduced against the parent protein; the word gives no strength. Where a sequence is shown, tags or fusion partners need not be part of it.

Target: T1, mNeonGreen-mPtpn1 (PTP1B) (mouse) (UniProt P35821)
T1 sequence: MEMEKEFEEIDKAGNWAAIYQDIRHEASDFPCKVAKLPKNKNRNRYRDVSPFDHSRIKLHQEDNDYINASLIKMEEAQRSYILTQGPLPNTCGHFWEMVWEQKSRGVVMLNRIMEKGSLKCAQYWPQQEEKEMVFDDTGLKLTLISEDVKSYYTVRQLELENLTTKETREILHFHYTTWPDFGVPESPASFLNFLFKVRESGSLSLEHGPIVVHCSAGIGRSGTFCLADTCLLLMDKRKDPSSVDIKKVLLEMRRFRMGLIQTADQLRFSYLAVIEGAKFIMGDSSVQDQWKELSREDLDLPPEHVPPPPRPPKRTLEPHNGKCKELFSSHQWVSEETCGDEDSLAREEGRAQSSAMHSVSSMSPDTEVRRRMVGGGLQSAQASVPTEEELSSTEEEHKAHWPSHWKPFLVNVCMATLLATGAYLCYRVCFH
Assay: co-IP; anti-mNeonGreen antibody-bound magnetic beads (Dynabeads Co-Immunoprecipitation Kit) on lysates of WT mouse astrocytes co-infected with Ad-CMV-mNeonGreen-mPtpn1 and Ad-CMV-RFP-mCryba1; western blot for βA3/A1-crystallin in the eluent; mouse IgG beads as control

B1: βA3/A1-crystallin (overexpressed from Ad-CMV-RFP-mCryba1) (protein, UniProt P02525 1-198)
chain: MLYLVLFLVPFNSIQITIYDQENFQGKRMEFTSSCPNVSERNFDNVRSLKVECGAWIGYEHTSFCGQQFILERGEYPRWDAWSGSNAYHIERLMSFRPICSANHKESKITIFEKENFIGRQWEICDDYPSLQAMGWFNNEVGSMKIQCGAWVCYQYPGYRGYQYILECDHHGGDYKHWPEWGSHAQTSQIQSIRRIQQ
Question: With B1 as the binder, how does the binding read?
Answer: Its binding is “binds”.
